This is one part of the list.
What follows are molecules tested on T1, CTL2-GFP (C. trachomatis L2/434/Bu, GFP-expressing). Details: bulk GFP, single well; 28.5 h, 10 µM; inhibitor.
T1 construct: L2/434/Bu, GFP-expressing
Set-up: species or system HeLa; Intracellular C. trachomatis growth in HeLa cells, bulk GFP fluorescence relative to DMSO

Compound	% of control remaining [%]
CCc1nc2ccc(C(=O)N3CCCC(C(N)=O)C3)cn2c1N(CC)CCN(C)C (centres unmarked) [CBK146185]	138.342
O=C(NC1CCCC1)c1ccc(-c2cnc3[nH]c(=O)n(Cc4ccc(Cl)cc4)c3n2)cc1 [CBK065039]	157.788
CCC(CC)C(=O)Nc1nc(OCCN2CCCC2=O)cnc1-c1ccc(Cl)cc1Cl [CBK145210]	104.673
COc1ccccc1C(CC(=O)O)c1ccc2c(c1)OCO2 (centres unmarked) [CBK286971]	114.315
Clc1ccc(CN2CCN(c3nccnc3OCC3COc4ccccc4O3)CC2)cc1 (centres unmarked) [CBK082786T]	84.0315
OC1(c2ccccn2)CCN(CCc2ccccc2)CC1 [CBK282904]	117.322
Nc1nnc(CC(=O)N/N=C/c2cc(Br)c(O)c(Br)c2O)s1 [CBK262131]	100
CCOC(=O)c1ccc(NCc2c(O)ccc3oc4c(c23)CCCC4)cc1 [CBK160394]	55.4895
O=S(=O)(c1ccc(F)cc1)N1CCCC(c2nccnc2-c2ccc(F)cc2)C1 (centres unmarked) [CBK286136]	90.8282
Cc1cccc(Nc2nc(N/N=C/c3c[nH]nc3-c3ccccc3)nc(N3CCC(C)CC3)n2)c1C [CBK262498]	120.198
Cc1nc(C)c(C(=O)NC(Cc2ccsc2)c2nccs2)s1 (centres unmarked) [CBK282822]	140.492
Cc1ccc2[nH]c(CNC(=O)c3cn[nH]c3C3CCCCN3)nc2c1 (centres unmarked) [CBK304741]	88.962
O=C(C1CCCC1)N1CCCC(c2cc3cccnc3[nH]2)C1 (centres unmarked) [CBK284979]	69.0309
CCOC(=O)C1=C(C(=O)OCC)SC(=C2C(=S)C(C)(C)N(C(=O)c3ccc4ccccc4c3)c3ccccc32)S1 [CBK261643]	124.69
O=C(NCCn1nc2c(cc1=O)CCCCC2)c1ccccc1F [CBK282300]	130.006
CCN1CCN(c2ccc(NC(=O)c3ccc(-c4cc5ccccc5oc4=O)cc3)cc2Cl)CC1 [CBK266700]	206.599
Cc1nc2c(c(=O)[nH]1)CCN(Cc1ccc(Cl)c(Cl)c1)C2 [CBK283969]	115.458
Cc1cc(C)c(C)c(S(=O)(=O)NCCOCCO)c1C [CBK269153]	141.177
COc1cc(/C=C(/C#N)c2ccc(C(=O)O)cc2)c([N+](=O)[O-])cc1OCc1ccccc1 [CBK268738]	105.702
CCCCOC(=O)c1ccc(NC(=O)c2cc(-c3ccco3)nc3c2c(C)nn3C)cc1 [CBK295313]	138.716

Quoted at random: two entries already listed
Compound	% of control remaining [%]
Nc1nnc(CC(=O)N/N=C/c2cc(Br)c(O)c(Br)c2O)s1 [CBK262131]	100
COc1ccccc1C(CC(=O)O)c1ccc2c(c1)OCO2 (centres unmarked) [CBK286971]	114.315

From paper PMC12040169 (PLOS Biology, 2025)
